This is an account of results in article PMC8447601.

Sequences of proteins named here, by UniProt entry; tags and fusion partners are left off. Residues count along the entry.
UniProt Q39043, residues 24-668: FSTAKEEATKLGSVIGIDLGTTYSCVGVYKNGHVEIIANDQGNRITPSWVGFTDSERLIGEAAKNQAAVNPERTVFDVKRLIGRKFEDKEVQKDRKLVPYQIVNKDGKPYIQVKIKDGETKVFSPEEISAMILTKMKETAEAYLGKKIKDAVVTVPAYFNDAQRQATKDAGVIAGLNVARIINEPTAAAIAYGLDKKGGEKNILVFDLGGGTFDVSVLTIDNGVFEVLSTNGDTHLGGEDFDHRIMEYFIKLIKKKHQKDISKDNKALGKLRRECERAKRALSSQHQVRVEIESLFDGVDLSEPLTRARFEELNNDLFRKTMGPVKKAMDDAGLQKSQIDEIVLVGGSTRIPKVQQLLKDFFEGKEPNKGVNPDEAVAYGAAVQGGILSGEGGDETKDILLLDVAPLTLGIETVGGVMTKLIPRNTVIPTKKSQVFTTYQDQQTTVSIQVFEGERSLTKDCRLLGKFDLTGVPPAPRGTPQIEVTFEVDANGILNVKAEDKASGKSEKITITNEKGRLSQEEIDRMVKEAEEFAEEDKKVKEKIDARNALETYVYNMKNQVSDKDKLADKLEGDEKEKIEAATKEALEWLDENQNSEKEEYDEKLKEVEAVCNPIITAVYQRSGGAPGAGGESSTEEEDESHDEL
UniProt P18616: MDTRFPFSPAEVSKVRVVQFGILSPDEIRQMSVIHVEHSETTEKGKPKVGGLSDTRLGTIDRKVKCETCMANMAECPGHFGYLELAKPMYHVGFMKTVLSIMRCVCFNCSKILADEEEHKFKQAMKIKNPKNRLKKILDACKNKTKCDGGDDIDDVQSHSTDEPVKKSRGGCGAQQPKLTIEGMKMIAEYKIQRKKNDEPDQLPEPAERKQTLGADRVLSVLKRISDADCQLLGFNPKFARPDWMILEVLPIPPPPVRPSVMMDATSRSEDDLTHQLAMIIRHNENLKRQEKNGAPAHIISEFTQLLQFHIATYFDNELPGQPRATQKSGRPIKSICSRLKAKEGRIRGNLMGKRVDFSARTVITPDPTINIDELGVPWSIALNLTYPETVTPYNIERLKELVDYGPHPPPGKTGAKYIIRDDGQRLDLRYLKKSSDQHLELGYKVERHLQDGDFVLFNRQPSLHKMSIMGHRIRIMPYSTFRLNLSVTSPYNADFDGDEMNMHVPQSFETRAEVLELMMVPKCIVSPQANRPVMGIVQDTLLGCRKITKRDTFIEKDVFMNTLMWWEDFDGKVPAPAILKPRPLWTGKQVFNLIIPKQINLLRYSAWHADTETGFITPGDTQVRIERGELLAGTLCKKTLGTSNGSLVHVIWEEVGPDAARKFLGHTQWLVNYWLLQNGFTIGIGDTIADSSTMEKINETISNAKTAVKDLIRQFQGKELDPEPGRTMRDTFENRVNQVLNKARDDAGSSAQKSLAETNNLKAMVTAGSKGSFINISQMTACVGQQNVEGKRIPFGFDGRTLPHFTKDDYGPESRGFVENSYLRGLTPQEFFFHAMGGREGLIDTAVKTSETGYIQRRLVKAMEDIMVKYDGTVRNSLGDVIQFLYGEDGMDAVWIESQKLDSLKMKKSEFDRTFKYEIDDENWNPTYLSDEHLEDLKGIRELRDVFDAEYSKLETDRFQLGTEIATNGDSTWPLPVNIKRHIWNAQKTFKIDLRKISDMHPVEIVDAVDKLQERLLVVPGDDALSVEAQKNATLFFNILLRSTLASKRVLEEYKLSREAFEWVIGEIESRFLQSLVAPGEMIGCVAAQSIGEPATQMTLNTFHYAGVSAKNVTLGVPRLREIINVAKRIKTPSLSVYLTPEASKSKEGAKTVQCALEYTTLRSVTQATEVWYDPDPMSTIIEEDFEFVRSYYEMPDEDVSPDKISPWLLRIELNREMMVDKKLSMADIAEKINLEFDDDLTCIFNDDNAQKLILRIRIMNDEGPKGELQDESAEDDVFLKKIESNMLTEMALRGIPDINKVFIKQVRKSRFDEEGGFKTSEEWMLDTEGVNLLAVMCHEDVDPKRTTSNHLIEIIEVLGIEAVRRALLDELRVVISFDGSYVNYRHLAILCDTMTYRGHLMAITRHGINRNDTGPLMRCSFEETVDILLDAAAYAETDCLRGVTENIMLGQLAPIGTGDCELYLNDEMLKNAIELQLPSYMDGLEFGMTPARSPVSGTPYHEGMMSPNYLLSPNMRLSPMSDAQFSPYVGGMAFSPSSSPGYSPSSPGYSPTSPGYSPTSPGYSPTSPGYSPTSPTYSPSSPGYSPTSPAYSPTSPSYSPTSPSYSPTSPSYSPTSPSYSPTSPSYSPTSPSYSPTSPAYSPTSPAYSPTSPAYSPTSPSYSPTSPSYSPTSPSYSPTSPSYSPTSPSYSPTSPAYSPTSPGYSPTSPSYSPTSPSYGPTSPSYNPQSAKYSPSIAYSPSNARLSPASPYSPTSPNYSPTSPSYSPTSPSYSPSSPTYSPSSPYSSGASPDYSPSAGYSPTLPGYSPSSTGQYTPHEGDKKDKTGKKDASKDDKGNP
UniProt P55852: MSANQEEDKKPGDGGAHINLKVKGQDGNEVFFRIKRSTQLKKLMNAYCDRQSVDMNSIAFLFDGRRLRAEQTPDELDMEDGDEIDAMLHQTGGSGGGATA
UniProt Q9FLP6: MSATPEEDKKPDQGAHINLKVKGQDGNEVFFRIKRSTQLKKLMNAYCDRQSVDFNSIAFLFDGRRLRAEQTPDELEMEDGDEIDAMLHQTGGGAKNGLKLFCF

No constants are given. Whether binding was seen depends on the method and setting. Binding seen in cells or lysates may run through a third protein. A yes stands for co-enrichment or nearness to the bait. Other partners may have been found. For some assays here: A no says only that the protein was not detected with the bait. Sequences can lack the tags named with a protein.

Experiment [1] has as its target T1, Tudor staphylococcal nuclease 2 with C-terminal TAPa tag (TSN2‐TAPa) (Arabidopsis thaliana) (UniProt Q9FLT0).
T1 sequence: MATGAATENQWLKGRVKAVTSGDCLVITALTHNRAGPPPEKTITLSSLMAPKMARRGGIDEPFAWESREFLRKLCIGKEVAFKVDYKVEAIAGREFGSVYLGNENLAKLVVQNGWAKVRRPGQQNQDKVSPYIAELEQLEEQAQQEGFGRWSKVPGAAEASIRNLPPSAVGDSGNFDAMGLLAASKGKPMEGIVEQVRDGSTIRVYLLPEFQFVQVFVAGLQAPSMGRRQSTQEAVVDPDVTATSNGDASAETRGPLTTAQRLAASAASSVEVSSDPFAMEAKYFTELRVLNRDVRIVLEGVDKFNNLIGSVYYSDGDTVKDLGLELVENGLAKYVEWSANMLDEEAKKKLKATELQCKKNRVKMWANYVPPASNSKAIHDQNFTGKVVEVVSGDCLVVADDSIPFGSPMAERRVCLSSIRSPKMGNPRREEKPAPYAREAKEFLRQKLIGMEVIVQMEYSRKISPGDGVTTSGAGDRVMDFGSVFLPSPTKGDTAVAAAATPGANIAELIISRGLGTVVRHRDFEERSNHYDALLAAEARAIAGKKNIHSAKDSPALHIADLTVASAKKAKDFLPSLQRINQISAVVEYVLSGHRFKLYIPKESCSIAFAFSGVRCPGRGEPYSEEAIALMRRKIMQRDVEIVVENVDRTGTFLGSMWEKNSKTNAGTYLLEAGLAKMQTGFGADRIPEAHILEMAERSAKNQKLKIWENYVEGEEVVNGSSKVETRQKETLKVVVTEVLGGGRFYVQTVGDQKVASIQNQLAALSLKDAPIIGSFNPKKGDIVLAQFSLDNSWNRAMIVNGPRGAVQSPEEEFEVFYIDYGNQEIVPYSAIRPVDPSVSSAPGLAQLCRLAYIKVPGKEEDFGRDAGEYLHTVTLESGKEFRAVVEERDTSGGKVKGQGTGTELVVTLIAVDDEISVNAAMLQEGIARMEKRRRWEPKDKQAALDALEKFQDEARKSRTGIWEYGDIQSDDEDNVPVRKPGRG
The experiment in a line: affinity purification with mass spectrometry; TAPa: TSN2-TAPa or TSN1-TAPa as bait from leaves of 18-day-old Arabidopsis; IgG beads, 3C protease elution, Ni-NTA; 50 mM Tris-HCl pH 7.5, 150 mM NaCl, 10% glycerol, 0.1% Nonidet P-40, 4°C; label-free LC-MS/MS (iBAQ), enrichment against GFP-TAPa; plants at 23°C (NS), 39°C for 60 min (HS) or 200 mM NaCl for 5 h.

Experiment [2] concerns the target T1, Tudor staphylococcal nuclease 2 with C-terminal TAPa tag (TSN2‐TAPa) (Arabidopsis thaliana). The experiment in a line: affinity purification with mass spectrometry; TAPa with TSN2-TAPa as in a1, plants without stress (23°C): TSN2_NS pool.

As for BIP2 (from UniProt Q39043 24-668), in experiment [1], the binding result was “binds”. With HSP70, the binding entry in experiment [1] is listed as “binds”.

With MCA‐Ia, the binding entry in experiment [1] is “binds”.

Turning to “NRPB1 (DNA‐directed RNA polymerase II subunit) (from UniProt P18616 1-1839)”, the figures for the binding result in experiment [2] and in experiment [1] were “no binding (only without stress (23°C))” and “binds”, respectively.

As to RNA‐binding protein 47 (RBP47), in experiment [1], the binding result is “binds”.

As for SKP1, the binding entry in experiment [1] is given as “binds”. Still for that read-out and setting: next, SUMO1 (from UniProt P55852 1-100): “binds”. As to SUMO2 (from UniProt Q9FLP6 1-103), the binding entry in experiment [1] is on record as “binds”. Take “eEF1B (subunit of eEF1 elongation factor)”: the binding result in experiment [2] is “no binding (only without stress (23°C))”; in experiment [1], “binds”. The like results for “eEF1Bγ (subunit of eEF1 elongation factor)” were, in that order, “no binding (only without stress (23°C))” and “binds”. In the case of eIF4E5, the binding entry in experiment [1] is recorded as “binds”.

B1: BRN1 (protein, UniProt Q8LFS6 1-441)
chain: MAEAKEENREKNEEEESVKLFVGQIPKHMSESQLLTLFQEFAVVDEVNIIKDKITRASRGCCFLLCPSREEADKLVNACHNKKTLPGANSLLQVKYADGELERLEHKLFVGMLPKNVSEAEVQSLFSKYGTIKDLQILRGAQQTSKGCAFLKYETKEQAVSAMESINGKHKMEGSTVPLVVKWADTERERHTRRLQKAQSHIARLGNGDPTNPSLFGALPMGYVPPYNGYGYHQPPGTYGYMLPPIQNQAAFSNMIAQPNQGNNNALQGTSPDSVPPRLARRNFPMPPGNYMGSGYPAMRGHPFPFAYPRGIVSPRPLSSSPGSISPGMSTPLGIGLSSVVQTEGPEGANLFIYNIPREFGDQELAAAFQSFGIVLSAKVFVDKATGVSKCFGFVSYDSQAAAQNAIDMMNGRHLGGKKLKVQLKRDSNNGQPSSNPSLIS
Take B1: the binding result in experiment [2] is “no binding (only without stress (23°C))”; in experiment [1], “binds”.

B2: RENT1 (protein, UniProt Q9FJR0 1-1254)
chain: MDSQQSDLFDTASQPDTVADEYTFLEFNTQGDSEFDYQDFGSPTAWPTPSDSISIADVADRGEGGAAADHHSEASSPSSLSAGAGNGAKVGRGGVGGSGGVSSSSQVDALAAGVGNLNFEETGDDDGFDYGKNDFTEHACKYCGISNPACVVRCNVASCRKWFCNSRGNTSGSHIVNHLVRAKHKEVCLHRDSPLGETILECYNCGCRNVFLLGFISAKTDSVVVLLCRDPCLNVNALKDMNWDLSQWCPLIDDRCFLPWLVKVPSEQEQLRARQISAQQINKIEELWKTNPDATLEDLEKPGVDDEPQPVQPKYEDAYQYQNVFAPLIKLEADYDKMMKESQSKENLTVRWDIGLNKKRVAYFVFPKEENELRLVPGDELRLRYSGDAVHPSWQSVGHVIKLTAQEEVALELRANQGVPIDVNHGFSVDFVWKSTSFDRMQGAMKNFAVDETSVSGYIYHQLLGHEVEAQMVRNTLPRRFGVPGLPELNASQVNAVKSVLQKPISLIQGPPGTGKTVTSAAIVYHMAKQGQGQVLVCAPSNVAVDQLAEKISATGLKVVRLCAKSREAVSSPVEYLTLHYQVRHLDTSEKSELHKLQQLKDEQGELSSSDEKKYKNLKRATEREITQSADVICCTCVGAADLRLSNFRFRQVLIDESTQATEPECLIPLVLGVKQVVLVGDHCQLGPVIMCKKAARAGLAQSLFERLVTLGIKPIRLQVQYRMHPALSEFPSNSFYEGTLQNGVTIIERQTTGIDFPWPVPNRPMFFYVQLGQEEISASGTSYLNRTEAANVEKLVTAFLKSGVVPSQIGVITPYEGQRAYIVNYMARNGSLRQQLYKEIEVASVDSFQGREKDYIILSCVRSNEHQGIGFLNDPRRLNVALTRARYGIVILGNPKVLSKQPLWNGLLTHYKEHECLVEGPLNNLKQSMVQFQKPRKIYNDRRLFYGGGAGMIGNDNFGSGNPNADRRGSRGRAGGSYLPSGPPNGARPGLHPAGYPIPRVPLSPFPGGPPSQPYAIPTRGPVGAVPHAPQPGNHGFGAGRGTSVGGHLPHQQATQHNVGTIGPSLNFPLDSPNSQPSPGGPLSQPGYGSQAFRDGFSMGGISQDFLADDIKSQGSHDPYNMADFATQASPGGFAVDYATQGAHGAFPGNFMNQNSQGGYSRFSGINDFMSQEYMAHGGQGLFTQAGFIDSSQDDGQQNPYGVNNPNLQSQGLPNSLYSQPFAHYNTQPLNLSGPQQSQPNQSSQNPKHPYNG
Consider B2, for which the binding entry in experiment [1] was “binds”.

B3: HEN4 (protein, UniProt F4KDN0 1-857)
chain: MERNSVKFHAEKRSGAFDPGSGFGSSKRVKTHHTQLLSALVVPVGHAAFRLLCPLSHVGAVIGKSGNVIKQLQQSTGAKIRVEEPPSGSPDRVITIIAQADSKSRVKLGANNNGNAEGEKKEEEVEVSKAQGALIKVFELLAAEADSDTVVCRLLTESSHAGAVIGKGGQMVGSIRKETGCKISIRIENLPICADTDDEMVEVEGNAIAVKKALVSISRCLQNCQSIDKVRMVGNRPLEKEFQASLHRPIETIIQESLPRSVEVNPYDYRLRNDEIFPRGTVARANDVIPHDTLHLRRIEAVPQGALRMHIEADRQDVLRRHVEADRQDALRRRIDVVPQETLYMPSDVLRGDCFRQHRERDDSHDSLHRPFEMVPRDAMGMPFESFPRDAYGRPIETMTQETLRGQSADYLAHRYSTLDTHPHSFTTSASMANTATMKPPPSEVEVGNQDVVFKILCSTENAGGVIGTGGKVVRMLHSETGAFINVGNTLDDCEERLIAVTASENPECQSSPAQKAIMLIFSRLFELATNKILDNGPRSSITARLVVPTSQIGCVLGKGGVIVSEMRKTTGAAIQILKVEQNPKCISENDQVVQITGEFPNVREAIFHITSRLRDSVFSNSMKNSLAKSSSALTTERFYDRQSDNPLSIGSHQSVSNPATNSSSLHRRSEDSFLSGSHSSVNYSRSVGTDPYIRPEDPFPDRFNPSAGYSHNFGRRFTMDHSDNSHHLTEAPSRLWASPPPAAPRGLSDASGGLSSARAGHVLGSGHKSAIVTNTTVEIRVPANAMSFVYGEQGYNLEQLRQISGARVIIHEPPLGTSDRIIVISGTPDQTQAAQNLLHAFILTGETSLSKKYNLN
As for B3, the binding result in experiment [2] is “no binding (only without stress (23°C))”; in experiment [1], “binds”.

B4: SnRK1α1 (α‐catalytic subunit of SNF1‐related protein kinase 1) (protein, UniProt Q38997 1-512)
chain: MDGSGTGSRSGVESILPNYKLGRTLGIGSFGRVKIAEHALTGHKVAIKILNRRKIKNMEMEEKVRREIKILRLFMHPHIIRLYEVIETPTDIYLVMEYVNSGELFDYIVEKGRLQEDEARNFFQQIISGVEYCHRNMVVHRDLKPENLLLDSKCNVKIADFGLSNIMRDGHFLKTSCGSPNYAAPEVISGKLYAGPEVDVWSCGVILYALLCGTLPFDDENIPNLFKKIKGGIYTLPSHLSPGARDLIPRMLVVDPMKRVTIPEIRQHPWFQAHLPRYLAVPPPDTVQQAKKIDEEILQEVINMGFDRNHLIESLRNRTQNDGTVTYYLILDNRFRASSGYLGAEFQETMEGTPRMHPAESVASPVSHRLPGLMEYQGVGLRSQYPVERKWALGLQSRAHPREIMTEVLKALQDLNVCWKKIGHYNMKCRWVPNSSADGMLSNSMHDNNYFGDESSIIENEAAVKSPNVVKFEIQLYKTRDDKYLLDLQRVQGPQFLFLDLCAAFLAQLRVL
With B4, the binding entry in experiment [1] is “binds”.
